In one assay the target is MAVS (UniProt Q7Z434). Description: co-IP.
For a further assay, the target named is T1, IRF7 (UniProt Q92985).
T1 sequence: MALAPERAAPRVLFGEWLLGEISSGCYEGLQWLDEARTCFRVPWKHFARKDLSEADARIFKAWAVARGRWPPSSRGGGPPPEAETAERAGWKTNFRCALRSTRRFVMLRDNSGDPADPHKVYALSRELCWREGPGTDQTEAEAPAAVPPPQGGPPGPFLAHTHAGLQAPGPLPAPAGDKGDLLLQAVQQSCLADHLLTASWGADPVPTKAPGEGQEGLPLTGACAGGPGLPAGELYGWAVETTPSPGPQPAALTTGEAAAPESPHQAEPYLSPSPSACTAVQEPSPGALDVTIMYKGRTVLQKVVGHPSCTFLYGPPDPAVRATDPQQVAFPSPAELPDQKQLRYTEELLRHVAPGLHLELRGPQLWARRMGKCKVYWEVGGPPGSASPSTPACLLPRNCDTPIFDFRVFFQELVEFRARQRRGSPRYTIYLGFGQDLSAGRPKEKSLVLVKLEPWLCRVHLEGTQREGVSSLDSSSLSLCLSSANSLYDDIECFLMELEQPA
The experiment in a line: co-IP.

Amino acid sequences for entries named in this document (tags omitted).
UniProt Q7Z434: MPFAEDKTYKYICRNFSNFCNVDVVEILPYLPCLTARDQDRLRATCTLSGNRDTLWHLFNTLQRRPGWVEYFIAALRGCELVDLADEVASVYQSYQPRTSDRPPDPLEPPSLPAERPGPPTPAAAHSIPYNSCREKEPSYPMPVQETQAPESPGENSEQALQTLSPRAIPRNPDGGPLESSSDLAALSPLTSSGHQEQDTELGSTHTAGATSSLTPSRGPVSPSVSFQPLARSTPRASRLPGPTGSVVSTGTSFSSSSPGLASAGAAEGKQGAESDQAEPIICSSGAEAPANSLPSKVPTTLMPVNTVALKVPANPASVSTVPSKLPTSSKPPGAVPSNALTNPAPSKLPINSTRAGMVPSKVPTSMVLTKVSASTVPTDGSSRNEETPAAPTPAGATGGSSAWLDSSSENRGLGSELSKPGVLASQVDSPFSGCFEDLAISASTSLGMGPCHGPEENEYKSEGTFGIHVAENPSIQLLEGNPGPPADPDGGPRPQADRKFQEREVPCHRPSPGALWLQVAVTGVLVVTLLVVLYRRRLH

Assay [1] deals with T2, Flag-TBK1 (TANK-binding kinase-1), Q9UHD2.
T2 chain: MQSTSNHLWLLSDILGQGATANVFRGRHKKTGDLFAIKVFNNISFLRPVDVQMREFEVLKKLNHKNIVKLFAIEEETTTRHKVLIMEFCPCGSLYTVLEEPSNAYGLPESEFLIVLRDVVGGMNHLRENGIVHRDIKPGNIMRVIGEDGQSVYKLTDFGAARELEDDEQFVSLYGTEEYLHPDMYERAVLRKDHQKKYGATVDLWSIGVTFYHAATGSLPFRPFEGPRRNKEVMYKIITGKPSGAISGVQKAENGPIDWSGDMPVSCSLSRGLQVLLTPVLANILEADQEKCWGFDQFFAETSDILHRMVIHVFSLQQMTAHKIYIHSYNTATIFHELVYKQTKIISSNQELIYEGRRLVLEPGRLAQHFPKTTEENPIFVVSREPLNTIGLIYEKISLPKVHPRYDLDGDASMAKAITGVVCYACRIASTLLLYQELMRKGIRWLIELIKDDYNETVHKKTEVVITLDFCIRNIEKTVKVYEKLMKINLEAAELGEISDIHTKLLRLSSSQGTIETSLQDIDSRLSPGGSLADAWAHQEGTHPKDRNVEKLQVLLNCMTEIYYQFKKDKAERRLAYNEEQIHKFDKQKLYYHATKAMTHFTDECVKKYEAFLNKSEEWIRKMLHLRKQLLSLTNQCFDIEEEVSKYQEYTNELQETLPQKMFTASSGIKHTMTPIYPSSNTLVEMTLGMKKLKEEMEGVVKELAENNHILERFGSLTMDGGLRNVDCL
Description: co-IP. As to conditions: remark: other sources report otherwise.

Assay [2] deals with T3, Flag-TBK1 (TANK-binding kinase-1) (UniProt Q9UHD2).
T3 sequence: T2 chain
Description: co-IP.

Assay [3] has as its target T4, IRF3 in L929 cells (mouse (endogenous in L929)), P70671.
T4 chain: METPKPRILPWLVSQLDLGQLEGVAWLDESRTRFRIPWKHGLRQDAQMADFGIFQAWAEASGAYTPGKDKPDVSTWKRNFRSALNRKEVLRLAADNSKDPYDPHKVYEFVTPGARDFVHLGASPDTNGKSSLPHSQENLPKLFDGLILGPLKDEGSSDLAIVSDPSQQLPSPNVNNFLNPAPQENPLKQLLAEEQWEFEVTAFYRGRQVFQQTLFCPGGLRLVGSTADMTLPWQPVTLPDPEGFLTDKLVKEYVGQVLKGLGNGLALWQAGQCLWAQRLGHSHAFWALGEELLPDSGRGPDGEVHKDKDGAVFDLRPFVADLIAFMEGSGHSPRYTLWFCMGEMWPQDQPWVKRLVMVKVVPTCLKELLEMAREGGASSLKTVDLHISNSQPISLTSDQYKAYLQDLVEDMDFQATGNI
The experiment in a line: native gel or EMSA. The conditions noted are these: remark: other sources report otherwise. In general terms: In EMSA bound probe runs differently from free probe, usually more slowly.

Assay [4] concerns the target HA-NSP9 (SARS-CoV-2 non-structural protein 9) (SARS-CoV-2) (UniProt P0DTD1). Description: co-IP.

Results are given in words; binding and its absence hold for the method and conditions named. For part of these data: In cells and extracts the contact can be indirect. Some binding calls cover weakened binding; strength is not graded here. For part of these data: Tags and fused reporters may be left off the sequences shown.

As to “HA-NSP9 (SARS-CoV-2 non-structural protein 9) (from UniProt P0DTD1)”, the binding result with MAVS and with IRF7 was “no binding” in each case.

B1: Flag-TBK1 (TANK-binding kinase-1), Q9UHD2 1-729 (enzyme)
chain: T2 chain
Regarding B1, the binding entry in assay [1] is given as “binds”.

B2: IRF3 (protein, UniProt Q14653 1-427)
chain: MGTPKPRILPWLVSQLDLGQLEGVAWVNKSRTRFRIPWKHGLRQDAQQEDFGIFQAWAEATGAYVPGRDKPDLPTWKRNFRSALNRKEGLRLAEDRSKDPHDPHKIYEFVNSGVGDFSQPDTSPDTNGGGSTSDTQEDILDELLGNMVLAPLPDPGPPSLAVAPEPCPQPLRSPSLDNPTPFPNLGPSENPLKRLLVPGEEWEFEVTAFYRGRQVFQQTISCPEGLRLVGSEVGDRTLPGWPVTLPDPGMSLTDRGVMSYVRHVLSCLGGGLALWRAGQWLWAQRLGHCHTYWAVSEELLPNSGHGPDGEVPKDKEGGVFDLGPFIVDLITFTEGSGRSPRYALWFCVGESWPQDQPWTKRLVMVKVVPTCLRALVEMARVGGASSLENTVDLHISNSHPLSLTSDQYKAYLQDLVEGMDFQGPGES
B2: the binding result in assay [2] was “binds”.

B3: IRF3 in L929 cells, P70671 1-419 (protein)
chain: T4 chain
For the molecule B3, the binding result in assay [3] is “binds”.

B4: Midline 1 (MID1), co-expressed with NSP9 (enzyme, UniProt O15344 1-667)
chain: METLESELTCPICLELFEDPLLLPCAHSLCFNCAHRILVSHCATNESVESITAFQCPTCRHVITLSQRGLDGLKRNVTLQNIIDRFQKASVSGPNSPSETRRERAFDANTMTSAEKVLCQFCDQDPAQDAVKTCVTCEVSYCDECLKATHPNKKPFTGHRLIEPIPDSHIRGLMCLEHEDEKVNMYCVTDDQLICALCKLVGRHRDHQVAALSERYDKLKQNLESNLTNLIKRNTELETLLAKLIQTCQHVEVNASRQEAKLTEECDLLIEIIQQRRQIIGTKIKEGKVMRLRKLAQQIANCKQCIERSASLISQAEHSLKENDHARFLQTAKNITERVSMATASSQVLIPEINLNDTFDTFALDFSREKKLLECLDYLTAPNPPTIREELCTASYDTITVHWTSDDEFSVVSYELQYTIFTGQANVVSLCNSADSWMIVPNIKQNHYTVHGLQSGTKYIFMVKAINQAGSRSSEPGKLKTNSQPFKLDPKSAHRKLKVSHDNLTVERDESSSKKSHTPERFTSQGSYGVAGNVFIDSGRHYWEVVISGSTWYAIGLAYKSAPKHEWIGKNSASWALCRCNNNWVVRHNSKEIPIEPAPHLRRVGILLDYDNGSIAFYDALNSIHLYTFDVAFAQPVCPTFTVWNKCLTIITGLPIPDHLDCTEQLP
As for B4, the binding result in assay [4] is “binds”.

The values above are taken from article PMC10580797.
